Measured values reported in PMC5473911.
Results are given in words; binding and its absence hold for the method and conditions named. Binding seen in cells or lysates may run through a third protein. Some results given as binding are weak or reduced against the parent protein; the word gives no strength. For part of these data: Where a sequence is shown, tags or fusion partners need not be part of it. Blank lines part the entries; values can stand above or below the substance they belong to.

Protein sequences, listed by entry. Tags and fused reporters are not part of them.
UniProt Q92993: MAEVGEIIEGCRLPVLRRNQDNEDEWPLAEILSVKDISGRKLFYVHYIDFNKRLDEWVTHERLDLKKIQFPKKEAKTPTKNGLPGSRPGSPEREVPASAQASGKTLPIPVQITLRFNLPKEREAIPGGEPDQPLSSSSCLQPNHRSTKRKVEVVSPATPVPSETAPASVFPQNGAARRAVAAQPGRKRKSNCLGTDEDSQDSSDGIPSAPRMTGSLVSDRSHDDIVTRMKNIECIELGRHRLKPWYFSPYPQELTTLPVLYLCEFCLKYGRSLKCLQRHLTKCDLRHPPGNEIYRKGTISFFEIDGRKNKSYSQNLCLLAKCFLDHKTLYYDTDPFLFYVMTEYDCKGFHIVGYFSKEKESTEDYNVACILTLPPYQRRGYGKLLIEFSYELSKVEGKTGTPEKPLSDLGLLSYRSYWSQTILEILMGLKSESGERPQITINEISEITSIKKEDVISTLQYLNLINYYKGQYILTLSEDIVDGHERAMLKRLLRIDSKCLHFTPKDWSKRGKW

Legend:
[1] = molecular target: T1, GFP-PXR (full-length) (human) (UniProt O75469); experiment: co-IP; Cos-1 cells transfected with GFP-PXR and RFP-TIP60; lysate (20 mM Tris-Cl pH 8.0, 150 mM NaCl, 2 mM EDTA, 0.5% Triton X-100, 0.1% SDS) incubated with anti-PXR antibody overnight at 4 °C, protein A Sepharose; blot with anti-TIP60
T1 sequence: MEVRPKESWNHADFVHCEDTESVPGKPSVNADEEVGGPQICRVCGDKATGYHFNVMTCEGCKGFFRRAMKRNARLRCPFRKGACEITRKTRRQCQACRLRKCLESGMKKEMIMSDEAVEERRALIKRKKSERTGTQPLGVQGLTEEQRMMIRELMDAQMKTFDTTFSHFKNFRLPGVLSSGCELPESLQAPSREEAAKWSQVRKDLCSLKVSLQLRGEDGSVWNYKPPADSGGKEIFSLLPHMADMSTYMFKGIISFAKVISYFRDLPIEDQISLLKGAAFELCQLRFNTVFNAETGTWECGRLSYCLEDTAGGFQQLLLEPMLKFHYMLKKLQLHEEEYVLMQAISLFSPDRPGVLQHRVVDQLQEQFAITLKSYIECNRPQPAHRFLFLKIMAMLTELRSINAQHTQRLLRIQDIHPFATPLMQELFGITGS

GST-PXR (human) = molecular target: T2, GST-PXR (human) (UniProt O75469); experiment: pull-down; E. coli BL21 DE3 codon plus cotransformed with pGEX6p2-PXR or pGEX6p2 and pET28a-TIP60; glutathione agarose beads; washed with 1X PBS, 0.2% Triton X-100, 300 mM NaCl; blot with anti-GST and anti-His
T2 sequence: T1 sequence

[2] = molecular target: T3, endogenous PXR (human (endogenous in HepG2)) (UniProt O75469); experiment: co-IP; endogenous PXR immunoprecipitated from HepG2 cells with anti-PXR or control mouse IgG; blot with anti-PXR or anti-TIP60
T3 sequence: T1 sequence

- binding [1]: binds
Substance: RFP-TIP60 (from UniProt Q92993 1-513) (enzyme)

- binding (GST-PXR (human)): binds
Substance: His-TIP60 (from UniProt Q92993 1-513) (enzyme)

- binding [2]: binds
Substance: endogenous TIP60 (from UniProt Q92993 1-513) (enzyme)
